# Substitutions are numbered along the chain they refer to. Names and notes keep the numbering of the source. No constants are given. Whether binding was seen depends on the method and setting. Binding can be weak; no strength is given. For part of these data: In cells and extracts the contact can be indirect. For part of these data: Sequences can lack the tags named with a protein.
# B1: FLAG-TECPR2 (WT) (protein, UniProt O15040 1-1411)
# chain: MASISEPVTFREFCPLYYLLNAIPTKIQKGFRSIVVYLTALDTNGDYIAVGSSIGMLYLYCRHLNQMRKYNFEGKTESITVVKLLSCFDDLVAAGTASGRVAVFQLVSSLPGRNKQLRRFDVTGIHKNSITALAWSPNGMKLFSGDDKGKIVYSSLDLDQGLCNSQLVLEEPSSIVQLDYSQKVLLVSTLQRSLLFYTEEKSVRQIGTQPRKSTGKFGACFIPGLCKQSDLTLYASRPGLRLWKADVHGTVQATFILKDAFAGGVKPFELHPRLESPNSGSCSLPERHLGLVSCFFQEGWVLSWNEYSIYLLDTVNQATVAGLEGSGDIVSVSCTENEIFFLKGDRNIIRISSRPEGLTSTVRDGLEMSGCSERVHVQQAEKLPGATVSETRLRGSSMASSVASEPRSRSSSLNSTDSGSGLLPPGLQATPELGKGSQPLSQRFNAISSEDFDQELVVKPIKVKRKKKKKKTEGGSRSTCHSSLESTPCSEFPGDSPQSLNTDLLSMTSSVLGSSVDQLSAESPDQESSFNGEVNGVPQENTDPETFNVLEVSGSMPDSLAEEDDIRTEMPHCHHAHGRELLNGAREDVGGSDVTGLGDEPCPADDGPNSTQLPFQEQDSSPGAHDGEDIQPIGPQSTFCEVPLLNSLTVPSSLSWAPSAEQWLPGTRADEGSPVEPSQEQDILTSMEASGHLSTNLWHAVTDDDTGQKEIPISERVLGSVGGQLTPVSALAASTHKPWLEQPPRDQTLTSSDEEDIYAHGLPSSSSETSVTELGPSCSQQDLSRLGAEDAGLLKPDQFAESWMGYSGPGYGILSLVVSEKYIWCLDYKGGLFCSALPGAGLRWQKFEDAVQQVAVSPSGALLWKIEQKSNRAFACGKVTIKGKRHWYEALPQAVFVALSDDTAWIIRTSGDLYLQTGLSVDRPCARAVKVDCPYPLSQITARNNVVWALTEQRALLYREGVSSFCPEGEQWKCDIVSERQALEPVCITLGDQQTLWALDIHGNLWFRTGIISKKPQGDDDHWWQVSITDYVVFDQCSLFQTIIHATHSVATAAQAPVEKVADKLRMAFWSQQLQCQPSLLGVNNSGVWISSGKNEFHVAKGSLIGTYWNHVVPRGTASATKWAFVLASAAPTKEGSFLWLCQSSKDLCSVSAQSAQSRPSTVQLPPEAEMRAYAACQDALWALDSLGQVFIRTLSKSCPTGMHWTRLDLSQLGAVKLTSLACGNQHIWACDSRGGVYFRVGTQPLNPSLMLPAWIMIEPPVQPAGVSLVSVHSSPNDQMLWVLDSRWNVHVRTGITEEMPVGTAWEHVPGLQACQLALSTRTVWARCPNGDLARRYGVTDKNPAGDYWKKIPGSVSCFTVTASDELWAVGPPGYLLQRLTKTFSHSHGTQKSSQAAMPHPEDLEDEWEVI
# B2: endogenous TECPR2 (protein, UniProt O15040 1-1411)
# chain: B1 chain
# B3: FLAG-TECPR2 (I1256A) (protein, UniProt O15040 1-1411)
# chain: B1 chain with I1256A
# B4: FLAG-TECPR2 (T903M) (protein, UniProt O15040 1-1411)
# chain: B1 chain with T903M
# B5: FLAG-TECPR2 (D1000Y) (protein, UniProt O15040 1-1411)
# chain: B1 chain with D1000Y
# B6: FLAG-TECPR2 (R1336W) (protein, UniProt O15040 1-1411)
# chain: B1 chain with R1336W
# B7: TECPR2 (935-1411 a.a.) (domain or fragment, UniProt O15040 935-1411)
# chain: YPLSQITARNNVVWALTEQRALLYREGVSSFCPEGEQWKCDIVSERQALEPVCITLGDQQTLWALDIHGNLWFRTGIISKKPQGDDDHWWQVSITDYVVFDQCSLFQTIIHATHSVATAAQAPVEKVADKLRMAFWSQQLQCQPSLLGVNNSGVWISSGKNEFHVAKGSLIGTYWNHVVPRGTASATKWAFVLASAAPTKEGSFLWLCQSSKDLCSVSAQSAQSRPSTVQLPPEAEMRAYAACQDALWALDSLGQVFIRTLSKSCPTGMHWTRLDLSQLGAVKLTSLACGNQHIWACDSRGGVYFRVGTQPLNPSLMLPAWIMIEPPVQPAGVSLVSVHSSPNDQMLWVLDSRWNVHVRTGITEEMPVGTAWEHVPGLQACQLALSTRTVWARCPNGDLARRYGVTDKNPAGDYWKKIPGSVSCFTVTASDELWAVGPPGYLLQRLTKTFSHSHGTQKSSQAAMPHPEDLEDEWEVI
# B8: TECPR2 (I1256A) (protein, UniProt O15040 1-1411)
# chain: B1 chain with I1256A
# B9: TECPR2 (T903M) (protein, UniProt O15040 1-1411)
# chain: B1 chain with T903M
# B10: TECPR2 (D1000Y) (protein, UniProt O15040 1-1411)
# chain: B1 chain with D1000Y
# B11: TECPR2 (1-944 a.a.) (domain or fragment, UniProt O15040 1-944)
# chain: MASISEPVTFREFCPLYYLLNAIPTKIQKGFRSIVVYLTALDTNGDYIAVGSSIGMLYLYCRHLNQMRKYNFEGKTESITVVKLLSCFDDLVAAGTASGRVAVFQLVSSLPGRNKQLRRFDVTGIHKNSITALAWSPNGMKLFSGDDKGKIVYSSLDLDQGLCNSQLVLEEPSSIVQLDYSQKVLLVSTLQRSLLFYTEEKSVRQIGTQPRKSTGKFGACFIPGLCKQSDLTLYASRPGLRLWKADVHGTVQATFILKDAFAGGVKPFELHPRLESPNSGSCSLPERHLGLVSCFFQEGWVLSWNEYSIYLLDTVNQATVAGLEGSGDIVSVSCTENEIFFLKGDRNIIRISSRPEGLTSTVRDGLEMSGCSERVHVQQAEKLPGATVSETRLRGSSMASSVASEPRSRSSSLNSTDSGSGLLPPGLQATPELGKGSQPLSQRFNAISSEDFDQELVVKPIKVKRKKKKKKTEGGSRSTCHSSLESTPCSEFPGDSPQSLNTDLLSMTSSVLGSSVDQLSAESPDQESSFNGEVNGVPQENTDPETFNVLEVSGSMPDSLAEEDDIRTEMPHCHHAHGRELLNGAREDVGGSDVTGLGDEPCPADDGPNSTQLPFQEQDSSPGAHDGEDIQPIGPQSTFCEVPLLNSLTVPSSLSWAPSAEQWLPGTRADEGSPVEPSQEQDILTSMEASGHLSTNLWHAVTDDDTGQKEIPISERVLGSVGGQLTPVSALAASTHKPWLEQPPRDQTLTSSDEEDIYAHGLPSSSSETSVTELGPSCSQQDLSRLGAEDAGLLKPDQFAESWMGYSGPGYGILSLVVSEKYIWCLDYKGGLFCSALPGAGLRWQKFEDAVQQVAVSPSGALLWKIEQKSNRAFACGKVTIKGKRHWYEALPQAVFVALSDDTAWIIRTSGDLYLQTGLSVDRPCARAVKVDCPYPLSQITARN
# B12: TECPR2 (W1140G) (protein, UniProt O15040 1-1411)
# chain: B1 chain with W1140G
# B13: TECPR2 (R1336W) (protein, UniProt O15040 1-1411)
# chain: B1 chain with R1336W
# Target: GFP-Rab5 (S34N)
# Assay: co-IP
row,Binder,binding
1,B1,binds weakly

# Target: endogenous Rab5 (human (endogenous in HEK293T))
# Assay: co-IP
row,Binder,binding
1,B2,binds

# Target: GFP-Rab5 (WT)
# Assay: co-IP
row,Binder,binding
1,B1,binds

# Target: GFP-Rab5 (Q79L)
# Assay: co-IP
row,Binder,binding
1,B1,binds
2,B3,binds
3,B4,binds
4,B5,no binding
5,B6,no binding

# Target: Rab5 (Q79L)
# Assay: two-hybrid
row,Binder,binding
1,B7,binds
2,B8,binds
3,B9,binds
4,B10,binds weakly
5,B11,no binding
6,B12,no binding
7,B13,no binding
